Results from article PMC9028839.
Results are given in words; binding and its absence hold for the method and conditions named. Binding seen in cells or lysates may run through a third protein. Some results given as binding are weak or reduced against the parent protein; the word gives no strength.

The chains behind the UniProt entries cited, without tags or fusion partners.
UniProt Q3T0D7, whole entry: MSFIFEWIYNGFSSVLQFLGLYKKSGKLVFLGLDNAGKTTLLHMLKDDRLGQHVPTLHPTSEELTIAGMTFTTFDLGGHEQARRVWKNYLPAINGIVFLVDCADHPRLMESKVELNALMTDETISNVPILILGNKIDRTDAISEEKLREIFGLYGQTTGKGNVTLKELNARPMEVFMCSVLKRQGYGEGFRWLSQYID
UniProt Q52NJ3, whole entry: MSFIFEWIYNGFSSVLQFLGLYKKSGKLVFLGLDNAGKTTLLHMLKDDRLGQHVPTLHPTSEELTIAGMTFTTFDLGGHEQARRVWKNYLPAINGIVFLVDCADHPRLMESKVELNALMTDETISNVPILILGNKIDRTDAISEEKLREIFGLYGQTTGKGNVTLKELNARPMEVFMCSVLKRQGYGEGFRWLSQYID

Experiments:
[1] = molecular target: Sar1a from cattle, FLAG-tagged (cattle) (UniProt Q3T0D7); assay: co-IP
[2] = molecular target: Sar1a from swine, FLAG-tagged (swine) (UniProt Q52NJ3); assay: co-IP

**Q.** With “FMDV 3A protein of strain O/TAW/97 (from UniProt Q6PMV1 1426-1568)” as the substance, how does the binding [1] read?
**A.** binds

**Q.** And the binding [2]?
**A.** binds
